From patent EP0737690A2, “Antihypertensive agent and method for preparing same” (The Calpis Food Industry Co., Ltd., priority 1995, dated 1996)
At least one peptide structure holds a part that was inferred or is arguable (an end, a ring closure or a residue). Ends that are not written are not given here.

Tested on: spontaneously hypertensive rats (SHR)
Test: Antihypertensive effect after forced oral administration, systolic blood pressure by tail cuff method
Assay type: in vivo
Conditions: synthesized peptide 1 mg/kg of body weight by stomachic sonde, after 6 hours, value ±SE, compared with control group, ∗P<0.05, ∗∗P<0.1

Q: Which “Changes in Systolic Blood Pressure Dose 1mg/kg” value does the source give for AYFYP [9), Ala Tyr Phe Tyr Pro] here?
A: -4.3±6.6 mmHg
